Test [1] deals with PDK1 kinase (Homo sapiens, UniProt O15530). Nature of the test: PDK1 Kinase Alpha Screen Assay. Type of test: biochemical. As to the method: 1. PDK1 Kinase Alpha Screen Assay
Reagents/Concentrations: The PDK1-4 peptide substrate, biotin-[…]-NH2, was purchased from the Tufts University Core Facility. The final concentration of PDK1-4 peptide substrate was 50 nM The ATP substrate (Adenosine-5′-triphosphate) was purchased from Roche Diagnostics. The final concentration of ATP substrate was 10 uM. Phospho-(Ser/Thr) PKA substrate antibody was purchased from Cell Signaling Technology. The final concentration of antibody was 0.3 mg/ml. The Alpha Screen Protein A detection kit containing donor and acceptor beads was purchased from PerkinElmer Life Sciences. The final concentration of both donor and acceptor beads was 25 μg/ml. Alpha Screen was used for detection. The biotinylated-PDK1-4 peptide was phosphorylated by PDK1 kinase using the ATP substrate. The biotinylated-PDK1-4 peptide substrate was bound to the streptavidin coated donor bead. The antibody was bound to the protein A coated acceptor bead. The antibody bound to the phosphorylated form of the biotinylated PDK-1 peptide substrate, bringing the donor and acceptor beads into close proximity. Laser irradiation of the donor bead at 680 nm generated a flow of short-lived singlet oxygen molecules. When the donor and acceptor beads were in close proximity, the reactive oxygen generated by the irradiation of the donor beads initiated a luminescence/fluorescence cascade in the acceptor beads. This process led to a highly amplified signal with output in the 530-620 nm range. Assays were carried out in 50 mM Tris, pH=7.5, 10 mM MgCl2, 0.1% Bovine Serum Albumin, 0.01% Tween-20, 2 mM Dithiolthreitol, 2.5% Dimethyl Sulfoxide. Reactions were stopped by adding 50 mM Tris, pH=7.5, 90 mM EDTA, 0.1% Bovine Serum Albumin, 0.01% Tween-20.
Procedure: To 10 μl of PDK1-4 peptide, 0.5 μl of test compound in dimethyl sulfoxide is added. PDK1 kinase and ATP are mixed. 10 μl of the PDK1 kinase/ATP mix is added to start the reaction. The reaction is allowed to proceed for 3-18 hours. The reactions are stopped by adding 10 μl of the EDTA-containing stop buffer. Beads are mixed with antibody. 25 μl of the bead/antibody mix is added to the stopped reactions. Plates are incubated at room temperature overnight to allow for detection development before being read. The assay is run is a 384-well format. […]

Chains of the proteins cited; added tags and fusions are not shown.
UniProt O15530, whole entry: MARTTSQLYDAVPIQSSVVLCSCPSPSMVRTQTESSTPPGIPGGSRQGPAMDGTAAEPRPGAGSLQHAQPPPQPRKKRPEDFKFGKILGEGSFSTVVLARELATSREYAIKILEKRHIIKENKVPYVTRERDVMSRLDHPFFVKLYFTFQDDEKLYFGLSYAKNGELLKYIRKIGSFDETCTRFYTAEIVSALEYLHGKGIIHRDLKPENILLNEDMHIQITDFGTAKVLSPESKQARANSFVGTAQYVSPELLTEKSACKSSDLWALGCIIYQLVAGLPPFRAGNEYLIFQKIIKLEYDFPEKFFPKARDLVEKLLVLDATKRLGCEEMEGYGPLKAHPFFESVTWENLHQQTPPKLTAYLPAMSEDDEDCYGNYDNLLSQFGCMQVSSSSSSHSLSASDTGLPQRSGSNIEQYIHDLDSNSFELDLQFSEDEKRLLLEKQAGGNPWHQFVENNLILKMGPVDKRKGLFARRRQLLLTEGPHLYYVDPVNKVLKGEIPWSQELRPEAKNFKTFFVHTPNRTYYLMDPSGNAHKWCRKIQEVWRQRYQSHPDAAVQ

For test [2], the system named is PC3MM cells. Kind of test: Cell Proliferation Assay (Cell Titer Glo), PC3MM. The note with it: read-out: CPEC50 PC3MM. As to the method:
(§1) IV. Cell Proliferation Assay Protocol:
(§2) A2780, PC-3, or PC3MM cells were seeded at 1000 cells/well in 100 μL/well (10.000 cells/mL) growth media in 96-well plates. Cells were allowed to adhere to the bottom of plates for 3-5 hours in a 37° C. 5% CO2 incubator. Compounds were dissolved in DMSO and then transferred to the cell plates. The cells were incubated with the compounds for 3 days in a 37° C. 5% CO2 incubator. The growth medium containing the compounds was then removed from the cells and fresh medium was added, followed by 100 μL of Cell Titer Glo assay reagent (Promega). This mixture was shaken for 1 minute and then incubated without shaking for 10 minutes. Activity determinations for the compounds were made by detection on a Trilux Instrument.

Test [3] deals with PC-3 cells. Nature of the test: Cell Proliferation Assay (Cell Titer Glo), PC-3 cell line. The settings on record: read-out: CPEC50 PC3. As to the method:
as §1, §2
V. Cell Proliferation Assay Protocol: PC-3 Cell Line
PC-3 cells were seeded at 1000 cells/well in 100 μL/well (10.000 cells/mL) along with growth media into black-walled, clear bottom 96-well plates. The cells were allowed to adhere to the bottom of the plate for 3-5 hours in a 37° C. 5% CO2 incubator.
Test compounds were diluted to 500× in DMSO. The DMSO solutions of six of the compounds were transferred to the cells in the 96 well round bottom plate, column 2, row B-F. A 1:3 serial dilution of each compound was carried out. The serial dilution comprised adding 20 μL of DMSO to the wells containing the compounds and doing a 1:3 dilution across the plate from columns 2-10. Column 11 contained only DMSO. The serial dilution was carried out using a BioMek 2000 protocol “CP Serial Dilution using 250 μL tips” or “Proliferation Compound” (if using 20 μL tips).
To a 96 deep well block, columns 2-11 rows B-F, was transferred 500 μL of growth medium. Using the FX protocol “HH_CellAssay—2 μL to 500 μL”, 2 μL of compound from each cell of the compound plate was transferred to the corresponding cell in the 96 deep well block containing 500 μL of growth medium. […] The plates were then read using a Trilux instrument.
Background: In ATP-based viability assays light output follows the ATP content of the culture.

Each structure is given as a SMILES string. Like-named read-outs stand apart in the source and are kept apart here. The structures given here were assigned with low confidence; some may be wrong.

Among the data in patent US7932262B2 (Novartis AG, priority 2006, dated 2011) are IC50 and EC50 values, retold here.

As to `COc1c(-c2cnn(CC(C)C)c2)ccc2cnc(Nc3cc(CN4CCOCC4)cc(NC(C)=O)c3)nc12` [Compound 715, N-(3-(7-(1-isobutyl-1H-pyrazol-4-yl)-8-methoxyquinazolin-2-ylamino)-5-(morpholinomethyl)phenyl)acetamide], the IC50 in test [1] (read-out: PDK1 BV11261, head of the second part of Table 4: BV11261) was less than 5 µM. Also, the EC50 in test [2] is less than 5 µM.
Consider `FC(F)(F)c1ccc(Nc2ncc3cccc(-c4ccc(NCCN5CCCC5)nc4)c3n2)cc1`, for which the IC50 in test [1] (read-out: PDK1 IC50) was less than 5 µM. In addition, the EC50 in test [3] was less than 5 µM.
For `CC(C)Cn1cc(-c2ccc3cnc(Nc4ccc(N5CCOCC5)cc4)nc3c2)cn1`, in test [1] (read-out: PDK1 IC50), the IC50 is less than 5 µM. Besides, in test [3], the EC50 was less than 5 µM.
As for `CC(C)Cn1cc(-c2ccc3cnc(Nc4cccc(N5CCOCC5)c4)nc3c2)cn1`, the IC50 in test [1] (read-out: PDK1 IC50) is less than 5 µM. For the same molecule, in test [3], the EC50 is less than 5 µM.
